The record followed here is patent US20030232360.

Amino acid sequences for entries named in this document (tags omitted). Residues count along the entry.
UniProt Q15717, 2-326: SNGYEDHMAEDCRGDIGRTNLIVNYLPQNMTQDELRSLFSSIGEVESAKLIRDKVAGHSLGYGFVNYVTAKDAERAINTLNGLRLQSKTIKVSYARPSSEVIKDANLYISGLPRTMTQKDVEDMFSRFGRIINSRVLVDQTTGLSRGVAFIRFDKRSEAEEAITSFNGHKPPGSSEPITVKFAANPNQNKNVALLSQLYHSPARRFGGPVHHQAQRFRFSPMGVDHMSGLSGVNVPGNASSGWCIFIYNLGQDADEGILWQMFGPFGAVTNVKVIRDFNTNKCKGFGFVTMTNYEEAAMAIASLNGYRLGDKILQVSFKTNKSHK

Data set [1] has as its target T1, AUF-1 (hnRNP D), endogenous in HeLa S100 (UniProt Q14103).
T1 sequence (looked up, limits assumed): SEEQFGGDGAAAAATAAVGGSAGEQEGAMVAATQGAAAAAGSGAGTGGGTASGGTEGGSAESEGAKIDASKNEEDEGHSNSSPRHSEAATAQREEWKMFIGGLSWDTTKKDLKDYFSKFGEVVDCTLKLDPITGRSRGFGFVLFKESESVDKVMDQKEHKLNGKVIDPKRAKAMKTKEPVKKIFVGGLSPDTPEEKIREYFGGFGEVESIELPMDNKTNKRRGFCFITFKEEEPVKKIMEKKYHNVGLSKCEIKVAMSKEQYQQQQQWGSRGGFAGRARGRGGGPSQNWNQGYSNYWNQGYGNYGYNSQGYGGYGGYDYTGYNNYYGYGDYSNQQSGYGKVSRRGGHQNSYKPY
The data set is described as follows: competition with a labelled probe. The settings on record: AUF-1 cross-link not competed by increasing synthetic ARE RNA; data not shown; protein in an extract.

Data set [2] deals with HuR (HuA, ELAV family), endogenous in HeLa S100 (UniProt Q15717). In words: competition with a labelled probe. Conditions: 5 pm ARE competitor RNA competes HuR cross-linking to SVARE-A60; protein in an extract.

Where cells or extracts were used, other partners may take part. For some assays here: A negative result means that nothing was seen under these conditions. For some assays here: Protein sequences can lack the tags named with them.

With “AUUAUUUAUUAUUUAUUUAUUAUUUAUUUAUUUA [TNF-alpha ARE competitor RNA]”, the binding result is reported as “no binding” in data set [1] and “binds” in data set [2].
